PubChem BioAssay AID1259405 – NCATS, 2018

Aim: 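Silenced genes that increase secreted GFP made by CHO cells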 (primary screen)
Cells: Chinese hamster CHO-K1 ovary cells with stable secreted eGFP expression
Reagents: single siRNA against mouse genes, 0.8 pmol siRNA per well (2 µl of 400 nM stock)
Time to read-out: 3 days
Detection: 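Percent of the per-plate non-targeting control median for intracellular GFP per well by laser scanning cytometry and for cell viability by ATP luminescence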
Reading the numbers: GFP, % of control: higher = more GFP per well, higher productivity; viability (ATP), % of control: higher = more viable cells (more ATP)
Active means: 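a knock-down is called active if GFP reaches 120% or more of non-targeting control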
The whole screen tested about 50,000 reagents; below is a random part of them. Of all reagents, about 4,000 (8%) are marked active. 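Mouse siRNA library applied to hamster cells; one well for each siRNA.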 Reagents against one gene are numbered here.

After knock-down of Clstn2 #1, the record shows GFP, % of control 74.6; viability (ATP), % of control 109; inactive.
Silencing of Clstn2 #2 came out at: GFP, % of control 124; viability (ATP), % of control 65.9; active.
Depletion of Clstn2 #3 gave: GFP, % of control 85.2; viability (ATP), % of control 96.1; inactive.
Smap1 #1 scored GFP, % of control 40.9; viability (ATP), % of control 29.1; inactive.
For Smap1 #2, the values are GFP, % of control 92; viability (ATP), % of control 83; inactive.
Depletion of Smap1 #3 came out at: GFP, % of control 52.4; viability (ATP), % of control 51.3; inactive.
Silencing of Lamp3 #1 came out at: GFP, % of control 57.1; viability (ATP), % of control 68.6; inactive.
With knock-down of Lamp3 #2 the results were GFP, % of control 78.2; viability (ATP), % of control 82.7; inactive.
After knock-down of Lamp3 #3, the record shows GFP, % of control 94.2; viability (ATP), % of control 88.3; inactive.
For Klhdc10 #1, the entry reads GFP, % of control 62.2; viability (ATP), % of control 61.8; inactive.
After knock-down of Klhdc10 #2, the screen gave GFP, % of control 117; viability (ATP), % of control 95.7; inactive.
For Klhdc10 #3, the values are GFP, % of control 73.5; viability (ATP), % of control 78.3; inactive.
After knock-down of Slc41a3 #1, the record shows GFP, % of control 105; viability (ATP), % of control 66.7; inactive.
Slc41a3 #2 gave GFP, % of control 87.3; viability (ATP), % of control 57.2; inactive.
Slc41a3 #3 showed GFP, % of control 77.7; viability (ATP), % of control 73.4; inactive.
After knock-down of Mylpf #1, the record shows GFP, % of control 79.5; viability (ATP), % of control 93; inactive.
Mylpf #2 scored GFP, % of control 56.2; viability (ATP), % of control 59.8; inactive.

Limited to “GFP, % of control” (4 entries from above):
Lamp3 #1	57.1
Lamp3 #2	78.2
Lamp3 #3	94.2
Klhdc10 #1	62.2

Continued:
Ephb3 gave GFP, % of control 58.1; viability (ATP), % of control 69.7; inactive.
Against Spata16 #1, the entry reads GFP, % of control 65.6; viability (ATP), % of control 70.5; inactive.
With knock-down of Spata16 #2 the results were GFP, % of control 78.4; viability (ATP), % of control 49.6; inactive.
Spata16 #3 scored GFP, % of control 77.4; viability (ATP), % of control 75.9; inactive.
For Ccm2l #1, the values are GFP, % of control 40.1; viability (ATP), % of control 58.5; inactive.
Depletion of Ccm2l #2 resulted in: GFP, % of control 62.9; viability (ATP), % of control 75.1; inactive.
For Ccm2l #3 the deposit lists GFP, % of control 105; viability (ATP), % of control 103; inactive.
Knock-down of Or6c214 #1 came out at: GFP, % of control 52.8; viability (ATP), % of control 50.8; inactive.
Knock-down of Or6c214 #2 came out at: GFP, % of control 75.5; viability (ATP), % of control 83.2; inactive.
Against Or6c214 #3, the values are GFP, % of control 46.1; viability (ATP), % of control 39.4; inactive.
Tgds #1 showed GFP, % of control 117; viability (ATP), % of control 135; inactive.
With knock-down of Tgds #2, the record shows GFP, % of control 63.6; viability (ATP), % of control 80.9; inactive.
Or4k52 #1 showed GFP, % of control 61.5; viability (ATP), % of control 50.9; inactive.
For Or4k52 #2 the deposit lists GFP, % of control 44.4; viability (ATP), % of control 64.4; inactive.
After knock-down of Or4k52 #3, the screen gave GFP, % of control 70.6; viability (ATP), % of control 84.8; inactive.
After knock-down of Kcne3 #1, the record shows GFP, % of control 67.5; viability (ATP), % of control 102; inactive.
For Kcne3 #2 the deposit lists GFP, % of control 34.5; viability (ATP), % of control 32.3; inactive.
Against Kcne3 #3 the deposit lists GFP, % of control 93.7; viability (ATP), % of control 89; inactive.
Against Ptgdr #1, the values are GFP, % of control 117; viability (ATP), % of control 94.8; inactive.
For Ptgdr #2 the deposit lists GFP, % of control 50.6; viability (ATP), % of control 71.7; inactive.
Depletion of Ptgdr #3 gave: GFP, % of control 94.6; viability (ATP), % of control 80.3; inactive.
Clic4 #1 gave GFP, % of control 100; viability (ATP), % of control 140; inactive.
After knock-down of Clic4 #2, the record shows GFP, % of control 84.8; viability (ATP), % of control 77.9; inactive.
For Clic4 #3, the values are GFP, % of control 28.1; viability (ATP), % of control 18.2; inactive.
